Data: PMC8660637
These are yes or no findings as the source states them, for the method shown. Binding seen in cells or lysates may run through a third protein. These calls come from enrichment with a bait or labelling near it, and not all partners need be listed. A no says only that the protein was not detected with the bait.

By UniProt entry, the sequences of proteins in these tests, tags left out.
UniProt O94864: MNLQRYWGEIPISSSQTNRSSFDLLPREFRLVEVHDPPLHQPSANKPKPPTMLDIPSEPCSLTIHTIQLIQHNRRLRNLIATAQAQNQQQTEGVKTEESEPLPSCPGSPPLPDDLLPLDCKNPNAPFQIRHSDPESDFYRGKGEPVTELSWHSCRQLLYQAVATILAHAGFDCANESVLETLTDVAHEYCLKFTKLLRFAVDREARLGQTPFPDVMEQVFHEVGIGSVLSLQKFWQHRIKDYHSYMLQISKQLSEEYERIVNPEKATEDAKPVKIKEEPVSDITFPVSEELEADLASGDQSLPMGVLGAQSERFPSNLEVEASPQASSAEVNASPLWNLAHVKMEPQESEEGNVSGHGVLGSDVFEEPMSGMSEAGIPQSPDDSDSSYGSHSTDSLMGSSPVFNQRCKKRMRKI
UniProt O75529: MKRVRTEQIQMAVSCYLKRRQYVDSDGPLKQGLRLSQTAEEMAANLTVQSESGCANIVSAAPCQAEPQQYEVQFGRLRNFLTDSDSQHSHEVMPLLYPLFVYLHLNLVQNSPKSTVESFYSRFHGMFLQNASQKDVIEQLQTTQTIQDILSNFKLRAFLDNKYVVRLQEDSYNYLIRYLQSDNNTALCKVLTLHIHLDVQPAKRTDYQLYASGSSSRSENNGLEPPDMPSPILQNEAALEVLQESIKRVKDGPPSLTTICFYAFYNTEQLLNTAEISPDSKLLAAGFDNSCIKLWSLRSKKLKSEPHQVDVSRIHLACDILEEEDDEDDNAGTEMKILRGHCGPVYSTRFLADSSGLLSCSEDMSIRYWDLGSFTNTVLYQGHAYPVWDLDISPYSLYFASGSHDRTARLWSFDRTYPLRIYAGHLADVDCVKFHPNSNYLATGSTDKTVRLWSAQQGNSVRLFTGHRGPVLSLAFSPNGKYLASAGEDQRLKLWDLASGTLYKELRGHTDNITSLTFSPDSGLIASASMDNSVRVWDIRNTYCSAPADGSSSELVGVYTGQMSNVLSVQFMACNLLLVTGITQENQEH
UniProt Q96BN2: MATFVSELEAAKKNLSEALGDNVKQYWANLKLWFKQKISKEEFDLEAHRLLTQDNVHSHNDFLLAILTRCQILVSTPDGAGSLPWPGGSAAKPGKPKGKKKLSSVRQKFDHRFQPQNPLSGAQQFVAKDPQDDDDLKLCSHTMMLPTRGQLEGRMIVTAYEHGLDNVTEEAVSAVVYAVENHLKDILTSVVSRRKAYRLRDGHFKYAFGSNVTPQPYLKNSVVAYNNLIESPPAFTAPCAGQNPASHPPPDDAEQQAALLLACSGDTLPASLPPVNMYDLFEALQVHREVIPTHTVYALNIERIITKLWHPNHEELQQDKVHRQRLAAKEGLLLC
UniProt Q16531: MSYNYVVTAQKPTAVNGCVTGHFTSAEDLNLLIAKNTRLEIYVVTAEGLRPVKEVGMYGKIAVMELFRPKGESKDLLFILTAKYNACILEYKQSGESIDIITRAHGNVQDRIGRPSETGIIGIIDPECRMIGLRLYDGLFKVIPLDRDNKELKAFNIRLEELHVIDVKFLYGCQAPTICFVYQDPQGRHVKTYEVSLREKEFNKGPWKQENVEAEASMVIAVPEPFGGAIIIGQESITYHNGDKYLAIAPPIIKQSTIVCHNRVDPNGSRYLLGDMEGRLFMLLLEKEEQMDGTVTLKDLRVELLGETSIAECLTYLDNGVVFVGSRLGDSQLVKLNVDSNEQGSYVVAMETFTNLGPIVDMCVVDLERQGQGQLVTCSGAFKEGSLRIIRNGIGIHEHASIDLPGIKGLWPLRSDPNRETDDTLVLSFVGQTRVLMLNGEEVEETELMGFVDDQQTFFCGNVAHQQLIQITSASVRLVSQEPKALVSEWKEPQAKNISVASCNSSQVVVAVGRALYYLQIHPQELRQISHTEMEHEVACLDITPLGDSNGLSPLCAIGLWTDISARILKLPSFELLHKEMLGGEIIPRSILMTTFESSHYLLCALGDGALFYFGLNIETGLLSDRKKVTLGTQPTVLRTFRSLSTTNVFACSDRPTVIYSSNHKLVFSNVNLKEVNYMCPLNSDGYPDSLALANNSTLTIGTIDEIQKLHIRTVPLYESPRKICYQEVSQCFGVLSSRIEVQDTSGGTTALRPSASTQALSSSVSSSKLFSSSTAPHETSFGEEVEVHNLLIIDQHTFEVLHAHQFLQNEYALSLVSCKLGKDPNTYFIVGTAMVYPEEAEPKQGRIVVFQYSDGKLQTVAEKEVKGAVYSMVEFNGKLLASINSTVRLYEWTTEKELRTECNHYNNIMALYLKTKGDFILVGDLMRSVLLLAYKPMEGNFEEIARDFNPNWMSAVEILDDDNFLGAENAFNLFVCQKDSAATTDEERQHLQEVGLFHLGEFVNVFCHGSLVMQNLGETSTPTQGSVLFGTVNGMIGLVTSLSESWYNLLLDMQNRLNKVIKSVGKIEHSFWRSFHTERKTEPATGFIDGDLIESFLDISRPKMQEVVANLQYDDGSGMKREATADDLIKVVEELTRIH
UniProt Q16514: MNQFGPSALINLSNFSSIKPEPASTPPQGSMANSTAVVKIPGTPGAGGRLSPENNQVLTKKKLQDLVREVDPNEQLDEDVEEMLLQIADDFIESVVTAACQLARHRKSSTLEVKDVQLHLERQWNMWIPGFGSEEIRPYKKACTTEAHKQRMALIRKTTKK
UniProt O75486: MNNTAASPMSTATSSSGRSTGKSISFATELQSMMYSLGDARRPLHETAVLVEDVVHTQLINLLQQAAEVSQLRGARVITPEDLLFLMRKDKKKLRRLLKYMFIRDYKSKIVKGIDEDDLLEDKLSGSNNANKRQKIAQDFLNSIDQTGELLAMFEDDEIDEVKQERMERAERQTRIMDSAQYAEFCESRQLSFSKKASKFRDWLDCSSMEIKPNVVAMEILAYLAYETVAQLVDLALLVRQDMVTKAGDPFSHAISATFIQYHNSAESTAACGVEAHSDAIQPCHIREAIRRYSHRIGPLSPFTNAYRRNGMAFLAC
UniProt Q15393: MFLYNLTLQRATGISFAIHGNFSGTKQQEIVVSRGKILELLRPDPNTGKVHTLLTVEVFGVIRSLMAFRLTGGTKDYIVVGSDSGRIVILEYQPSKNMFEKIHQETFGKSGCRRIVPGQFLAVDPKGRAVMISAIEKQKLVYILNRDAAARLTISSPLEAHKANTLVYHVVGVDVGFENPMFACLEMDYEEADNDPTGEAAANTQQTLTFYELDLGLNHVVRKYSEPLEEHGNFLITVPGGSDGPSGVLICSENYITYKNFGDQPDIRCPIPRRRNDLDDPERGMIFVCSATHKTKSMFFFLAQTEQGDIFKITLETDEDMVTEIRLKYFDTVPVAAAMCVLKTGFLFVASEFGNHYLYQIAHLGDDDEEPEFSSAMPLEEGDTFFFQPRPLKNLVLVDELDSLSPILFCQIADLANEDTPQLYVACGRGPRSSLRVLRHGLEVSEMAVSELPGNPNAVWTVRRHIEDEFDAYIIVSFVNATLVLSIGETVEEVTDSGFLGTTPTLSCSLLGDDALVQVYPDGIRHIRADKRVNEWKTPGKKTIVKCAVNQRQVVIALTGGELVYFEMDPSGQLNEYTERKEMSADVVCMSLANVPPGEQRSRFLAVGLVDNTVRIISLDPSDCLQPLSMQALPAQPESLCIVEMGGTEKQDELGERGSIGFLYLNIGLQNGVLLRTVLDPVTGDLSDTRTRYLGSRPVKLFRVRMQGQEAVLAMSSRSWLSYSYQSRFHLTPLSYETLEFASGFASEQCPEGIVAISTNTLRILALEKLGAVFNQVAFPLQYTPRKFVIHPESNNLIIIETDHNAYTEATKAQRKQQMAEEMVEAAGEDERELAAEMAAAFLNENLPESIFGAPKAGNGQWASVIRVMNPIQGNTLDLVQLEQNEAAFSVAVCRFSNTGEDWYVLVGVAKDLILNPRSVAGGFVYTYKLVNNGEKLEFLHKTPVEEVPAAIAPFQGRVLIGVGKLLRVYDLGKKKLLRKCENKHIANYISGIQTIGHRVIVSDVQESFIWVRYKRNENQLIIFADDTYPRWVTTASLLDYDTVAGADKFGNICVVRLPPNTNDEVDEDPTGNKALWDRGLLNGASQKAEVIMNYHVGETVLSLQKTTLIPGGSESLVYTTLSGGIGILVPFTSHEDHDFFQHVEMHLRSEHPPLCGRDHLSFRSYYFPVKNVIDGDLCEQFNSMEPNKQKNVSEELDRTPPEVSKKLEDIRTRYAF
UniProt Q8NEM7: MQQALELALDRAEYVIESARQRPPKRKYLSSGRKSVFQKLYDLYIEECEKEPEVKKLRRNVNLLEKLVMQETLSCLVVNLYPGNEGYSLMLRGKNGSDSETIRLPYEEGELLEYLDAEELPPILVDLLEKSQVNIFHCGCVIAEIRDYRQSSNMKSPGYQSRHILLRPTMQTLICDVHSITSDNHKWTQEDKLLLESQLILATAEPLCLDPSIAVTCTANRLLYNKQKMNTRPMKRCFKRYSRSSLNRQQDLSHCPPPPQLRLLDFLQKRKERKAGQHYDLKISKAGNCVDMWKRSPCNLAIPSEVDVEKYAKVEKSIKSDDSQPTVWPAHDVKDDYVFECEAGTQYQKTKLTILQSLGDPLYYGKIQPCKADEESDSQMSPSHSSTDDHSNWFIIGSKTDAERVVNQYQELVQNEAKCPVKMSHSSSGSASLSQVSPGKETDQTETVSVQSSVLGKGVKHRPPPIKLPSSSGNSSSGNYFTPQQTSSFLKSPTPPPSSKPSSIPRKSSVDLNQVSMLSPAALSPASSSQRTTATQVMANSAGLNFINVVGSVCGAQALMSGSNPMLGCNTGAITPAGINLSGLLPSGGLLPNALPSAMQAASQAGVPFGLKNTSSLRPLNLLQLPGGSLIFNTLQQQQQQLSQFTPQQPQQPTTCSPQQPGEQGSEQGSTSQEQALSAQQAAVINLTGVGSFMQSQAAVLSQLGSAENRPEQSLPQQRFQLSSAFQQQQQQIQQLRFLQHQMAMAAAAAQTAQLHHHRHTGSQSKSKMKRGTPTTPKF

Molecular target: SUPT7L-Halo-(FLAG)3 (human (endogenous in HeLa)) (UniProt O94864)
Experiment: affinity purification with mass spectrometry; same FLAG purification of hSAGA by SUPT7L-Halo-(FLAG)3; about 1 µg digested with trypsin or chymotrypsin, Orbitrap Elite, Sequest and Scaffold

Substance | binding
TAF5L (from UniProt O75529 1-589) | binds
TADA1 (from UniProt Q96BN2 1-335) | binds
DDB1 (from UniProt Q16531 1-1140) | no binding

Second part, the substance after the results:

binding | Substance
binds | TAF12 (from UniProt Q16514 1-161)
binds | SUPT3H (from UniProt O75486 1-317)
binds | SF3B3 (from UniProt Q15393 1-1217)
binds | SUPT20H (from UniProt Q8NEM7 1-779)
